{"source": "PubChem BioAssay AID493014", "about": "(National Center for Advancing Translational Sciences (NCATS), 2011)", "test": "qHTS Assay to Find Inhibitors of Chronic Active B-Cell Receptor Signaling", "details": "ABC-DLBCL IkBa-CBG/CBR reporter, luminescence ratio (green luciferase fused to IkBa over red control in TMD8 lymphoma cells), 4 h", "how_it_was_run": "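Doxycycline induced both beetle luciferases in TMD8 lymphoma cells; IKK-driven degradation limits the IkappaBalpha-fused green signal, while red luminescence normalises for cell number and nonspecific effects. Compounds tested up to 46 uM, 4 hrs.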", "key": {"[1]": {"details": "measured here: CBR red luminescence, cell number"}, "[2]": {"details": "measured here: IkBa-CBG green luminescence"}}, "note": "This is one part of the list. The main result of the screen is listed elsewhere. These columns were measured beside it and carry no call. Most of these compounds were active or inconclusive in the main read-out, so they are no random draw. The note in brackets gives the kind of curve behind each potency; many fits are weak."}
{"molecule": "CCOc1nc(-c2ccc(Cl)cc2Cl)ccc1C#N", "values": [{"measurement": "AC50", "setting": "[1]", "result": "16.4 µM [rising, partial curve]"}]}
{"molecule": "CCCn1c(=O)c2c(nc3n2CCCN3CCc2ccccc2)n(C)c1=O", "values": [{"measurement": "AC50", "setting": "[1]", "result": "22.4 µM [falling, single point]"}]}
{"molecule": "CC(=O)Nc1ccc2nc(NC(=O)c3cccnc3)sc2c1", "values": [{"measurement": "AC50", "setting": "[1]", "result": "11.2 µM [falling, partial curve]"}]}
{"molecule": "CCOC(=O)Cc1csc(NC(=O)c2sc3nc4cc(C)ccc4cc3c2N)n1", "values": [{"measurement": "AC50", "setting": "[1]", "result": "1.84 µM [falling, full curve]"}]}
{"molecule": "COC(=O)Cc1c(C)nc2nc(-c3ccc(OC)cc3)[nH]n2c1=O", "values": [{"measurement": "AC50", "setting": "[1]", "result": "0.92 µM [falling, full curve]"}]}
{"molecule": "Clc1ncnc2scc(C3COc4ccccc4O3)c12", "note": "(centres undefined)", "values": [{"measurement": "AC50", "setting": "[1]", "result": "1.84 µM [falling, partial curve, poor fit]"}, {"measurement": "AC50", "setting": "[2]", "result": "25.9 µM [rising, partial curve, poor fit]"}]}
{"molecule": "CCCCCC1CC(CC(=O)Nc2ccc([N+](=O)[O-])cc2)C(=O)O1", "note": "(centres undefined)", "values": [{"measurement": "AC50", "setting": "[2]", "result": "5.8 µM [rising, partial curve, poor fit]"}]}
{"molecule": "CC(c1ccccc1)C1CC(=O)N(c2ccc(C(=O)O)cc2)C1=O", "note": "(centres undefined)", "values": [{"measurement": "AC50", "setting": "[1]", "result": "13 µM [rising, single point]"}]}
{"molecule": "c1ccc2nc(-c3ccc(-n4ccnc4)cc3)ccc2c1", "values": [{"measurement": "AC50", "setting": "[1]", "result": "0.141 µM [rising, full curve, poor fit]"}]}
{"molecule": "COc1ccc(/C=C/C(=O)C2CC2)cc1COc1c(C)cccc1C", "values": [{"measurement": "AC50", "setting": "[1]", "result": "35.5 µM [rising, single point]"}, {"measurement": "AC50", "setting": "[2]", "result": "35.5 µM [falling, single point]"}]}
{"molecule": "O=C1Nc2ccccc2S/C1=C/Nc1cccc(Cl)c1", "values": [{"measurement": "AC50", "setting": "[1]", "result": "0.0794 µM [falling, full curve]"}]}
{"molecule": "C/C(=N\\O)c1ccc2c3ccccc3n(C)c2c1", "values": [{"measurement": "AC50", "setting": "[1]", "result": "7.94 µM [rising, partial curve]"}]}
{"molecule": "N#CCSc1nc2c(cc1C#N)CCCCCC2", "values": [{"measurement": "AC50", "setting": "[1]", "result": "29.1 µM [rising, single point]"}]}
{"molecule": "O=c1[nH]cnc2c1c(-c1ccccc1)cn2-c1cccc(Cl)c1", "values": [{"measurement": "AC50", "setting": "[1]", "result": "4.47 µM [falling, partial curve]"}]}
{"molecule": "N#C/C(=C/c1ccc(N2CCOCC2)o1)c1nc2ccccc2[nH]1", "values": [{"measurement": "AC50", "setting": "[1]", "result": "8.2 µM [falling, partial curve]"}]}
{"molecule": "CCc1ccc2nc(N3CCN(C(=O)C(C)(C)C)CC3)sc2c1", "values": [{"measurement": "AC50", "setting": "[1]", "result": "0.891 µM [rising, full curve, poor fit]"}]}
{"molecule": "COc1ccc(-c2nc(C#N)c(NCCc3ccccc3)o2)cc1", "values": [{"measurement": "AC50", "setting": "[1]", "result": "18.4 µM [rising, partial curve, poor fit]"}]}
{"molecule": "NNC(=O)c1ccc2ccccc2n1", "values": [{"measurement": "AC50", "setting": "[1]", "result": "0.501 µM [falling, full curve, poor fit]"}]}
{"molecule": "COc1ccc(S(=O)(=O)NCc2ccco2)cc1NC(=O)c1ccccc1", "values": [{"measurement": "AC50", "setting": "[1]", "result": "14.1 µM [falling, single point]"}]}
{"molecule": "CS(=O)(=O)N1CCN=C1SCc1ccc(F)cc1", "values": [{"measurement": "AC50", "setting": "[1]", "result": "14.1 µM [rising, partial curve, poor fit]"}]}
{"molecule": "CC12CCC(C(=O)N3CCN(c4ncccn4)CC3)(c3nc4ccccc4nc31)C2(C)C", "note": "(centres undefined)", "values": [{"measurement": "AC50", "setting": "[1]", "result": "2.06 µM [rising, partial curve, poor fit]"}]}
{"molecule": "CNCC[C@@H](Oc1ccc(C(F)(F)F)cc1)c1ccccc1", "values": [{"measurement": "AC50", "setting": "[1]", "result": "11.6 µM [falling, partial curve, poor fit]"}]}
{"molecule": "COc1ccccc1CNC(=O)CSc1nc(=O)n(Cc2ccncc2)c2c1CCC2", "values": [{"measurement": "AC50", "setting": "[1]", "result": "14.6 µM [falling, partial curve]"}]}
{"molecule": "CCN(CC)CCN1C(=O)C(=O)/C(=C(/O)c2c(C)[nH]c(C(=O)OC)c2C)C1c1ccc(C)o1", "note": "(centres undefined)", "values": [{"measurement": "AC50", "setting": "[1]", "result": "35.5 µM [falling, single point]"}]}
{"molecule": "CCOC(=O)c1c(SC)nc(SC)c2c1CCC2", "values": [{"measurement": "AC50", "setting": "[1]", "result": "0.92 µM [rising, full curve, poor fit]"}]}
{"molecule": "CCOc1ncccc1C(=O)N=c1sccn1C", "values": [{"measurement": "AC50", "setting": "[1]", "result": "0.794 µM [rising, full curve, poor fit]"}]}
{"molecule": "CCOc1ccccc1NC(=O)COC(=O)Cc1ccc(-c2ccccc2)cc1", "values": [{"measurement": "AC50", "setting": "[1]", "result": "13 µM [falling, partial curve]"}]}
{"molecule": "COCCNC(=O)c1cc2sc3ccccc3c2s1", "values": [{"measurement": "AC50", "setting": "[1]", "result": "1.3 µM [rising, partial curve, poor fit]"}]}
{"molecule": "CCN(CC)S(=O)(=O)c1ccc(NC(=O)COC(=O)CNS(=O)(=O)/C=C/c2ccccc2)cc1", "values": [{"measurement": "AC50", "setting": "[1]", "result": "29.1 µM [falling, single point]"}]}
{"molecule": "Cc1cc(Cl)ccc1OCC(=O)N1CCCCC1", "values": [{"measurement": "AC50", "setting": "[1]", "result": "32.6 µM [rising, single point]"}, {"measurement": "AC50", "setting": "[2]", "result": "32.6 µM [falling, partial curve, poor fit]"}]}
{"molecule": "Brc1cccc(Nc2nc(-c3cccnc3)cs2)c1", "values": [{"measurement": "AC50", "setting": "[1]", "result": "3.55 µM [rising, partial curve, poor fit]"}]}
{"molecule": "COc1cc(C(=O)N(CCN(C)C)CC2CCCN(Cc3ccccc3F)C2)ccc1C", "note": "(centres undefined)", "values": [{"measurement": "AC50", "setting": "[1]", "result": "28.2 µM [falling, partial curve, poor fit]"}]}
{"molecule": "COc1ccc(OC)c(-c2cc(C(=O)Nc3c(C)nn(Cc4ccccc4)c3C)no2)c1", "values": [{"measurement": "AC50", "setting": "[1]", "result": "3.55 µM [rising, single point]"}, {"measurement": "AC50", "setting": "[2]", "result": "14.1 µM [falling, partial curve, poor fit]"}]}
{"molecule": "COc1ccc(-c2noc(CSc3nc4sc(C)c(C)c4c(=O)n3-c3ccccc3)n2)cc1OC", "values": [{"measurement": "AC50", "setting": "[1]", "result": "1.64 µM [rising, full curve]"}]}
{"molecule": "O=C(CCc1ccccc1)NC1(Cc2ccccc2)CCN(CCCc2ccccc2)C1=O", "note": "(centres undefined)", "values": [{"measurement": "AC50", "setting": "[1]", "result": "23.1 µM [falling, partial curve, poor fit]"}]}
{"molecule": "O=C(Cc1ccccc1F)Nc1nc(-c2ccc(F)c(F)c2)cs1", "values": [{"measurement": "AC50", "setting": "[1]", "result": "28.2 µM [falling, single point]"}]}
{"molecule": "COc1ccc(S(=O)(=O)N2CCOCC2)cc1NC(=O)c1cc(=O)[nH]c2ccccc12", "values": [{"measurement": "AC50", "setting": "[1]", "result": "0.13 µM [rising, full curve, poor fit]"}]}
{"molecule": "CC(=O)N1N=C(c2ccc(Br)cc2)CC1c1cn(C)c2ccccc12", "note": "(centres undefined)", "values": [{"measurement": "AC50", "setting": "[1]", "result": "1.3 µM [falling, partial curve, poor fit]"}]}
{"molecule": "COc1cc2[nH]c3c(N4CCN(c5ccc(Cl)cc5)CC4)ncnc3c2cc1OC", "values": [{"measurement": "AC50", "setting": "[1]", "result": "35.5 µM [rising, single point]"}]}
{"molecule": "CCOC(=O)N1CCN(C(=O)c2cc3ccc(OC)cc3[nH]2)CC1", "values": [{"measurement": "AC50", "setting": "[1]", "result": "0.562 µM [rising, partial curve, poor fit]"}]}
